Test results: patent US20170189504A1, “NOVEL PEPTIDES AND COMBINATION OF PEPTIDES FOR USE IN IMMUNOTHERAPY AGAINST VARIOUS CANCERS” (immatics biotechnologies GmbH, priority 2015, published 2017)
For some of these results: Expression grades refer to the transcript from which the peptide derives; gene names, where given, were looked up from the sequence.

Legend:
HLA-A*02 = assay: Identification and relative LC-MS quantitation of HLA-A*02-presented tumor-associated peptides on tissue samples (presentation profiles, Tables 13A, 13B, 15, FIG. 1); set-up: species or system human; key to Presentation score NHL / Presentation score CLL / Presentation score BRCA / Presentation score AML / Presentation score GB / Presentation score NSCLC / Presentation score GBC_CCC / Presentation score UEC / Presentation score MEL / Presentation score OSCAR / Presentation score GC / Presentation score UBC / Presentation score OC / Presentation score RCC / Presentation score CRC / Presentation score PCA / Presentation score HCC / Presentation score PC / Presentation score SCLC: specifically presented on tumors (++++); very highly over-presented on tumors compared to a panel of normal tissues (+++); highly over-presented on tumors compared to a panel of normal tissues (++); over-presented on tumors compared to a panel of normal tissues (+); conditions: for Presentation score GB: glioblastoma (N = 41) vs panel of normal tissues (N = 262); for Peptide Presentation on cancer entities: HLA-A*02-binding tumor-associated peptides; for Presentation score CLL: chronic lymphocytic leukemia (N = 17) vs panel of normal tissues (N = 262); for Presentation score CRC: colorectal cancer (N = 28) vs panel of normal tissues (N = 262); for Presentation score NHL: non-Hodgkin lymphoma (N = 18) vs panel of normal tissues (N = 262)
source genes (mRNA) [1] = assay: Expression profiling of source genes by in-house RNASeq of tumor and normal tissues (Table 18, FIG. 2); set-up: species or system human; key: very highly over-expressed in tumors compared to a panel of normal tissues (+++); highly over-expressed in tumors compared to a panel of normal tissues (++); over-expressed in tumors compared to a panel of normal tissues (+); conditions: source gene of peptide; for Expression score GB: glioblastoma (N = 24) vs panel of normal tissues; for Expression score SCLC: small cell lung cancer (N = 10) vs panel of normal tissues; for Expression score AML: acute myeloid leukemia (N = 11) vs panel of normal tissues; for Expression score CLL: chronic lymphocytic leukemia (N = 10) vs panel of normal tissues; for Expression score OSCAR: esophageal cancer incl. gastric-esophageal junction (N = 11) vs panel of normal tissues; for Expression score NHL: non-Hodgkin lymphoma (N = 10) vs panel of normal tissues; for Expression score OC: ovarian cancer (N = 12) vs panel of normal tissues
source genes (mRNA) [2] = assay: Gene and exon expression of source genes, TCGA tumor samples compared with normal tissue samples (Lonsdale, 2013) (Table 17); set-up: species or system human; conditions: for Over-expression category of source gene (target coverage), BLCA: BLCA = Bladder urothelial carcinoma (N = 408); for Over-expression category of source gene (target coverage), BRCA: BRCA = Breast cancer (N = 1104), tumors more than 2-fold above highest 75% percentile of normal tissues; for Over-expression category of source gene (target coverage), CHOL: CHOL = Cholangiocarcinoma (N = 36); for Over-expression category of source gene (target coverage), COAD: COAD = Colon and rectal adenocarcinoma (N = 462); for Over-expression category of source gene (target coverage), DLBC: DLBC = Lymphoid neoplasm diffuse large B-cell lymphoma (N = 48); for Over-expression category of source gene (target coverage), ESCA: ESCA = Esophageal cancer (N = 185); for Over-expression category of source gene (target coverage), GBM: GBM = Glioblastoma multiforme (N = 169); for Over-expression category of source gene (target coverage), KIRC: KIRC = Clear cell kidney carcinoma (N = 534); for Over-expression category of source gene (target coverage), KIRP: KIRP = Papillary kidney carcinoma (N = 291); for Over-expression category of source gene (target coverage), LAML: LAML = Acute Myeloid Leukemia (N = 173); for Over-expression category of source gene (target coverage), LGG: LGG = Lower grade glioma (N = 534); for Over-expression category of source gene (target coverage), LIHC: LIHC = Liver hepatocellular carcinoma (N = 374); for Over-expression category of source gene (target coverage), LUAD: LUAD = Lung adenocarcinoma (N = 517); for Over-expression category of source gene (target coverage), LUSC: LUSC = Lung squamous cell carcinoma (N = 503); for Over-expression category of source gene (target coverage), OV: OV = Ovarian serous cystadenocarcinoma (N = 309); for Over-expression category of source gene (target coverage), PAAD: PAAD = Pancreatic ductal adenocarcinoma (N = 179); for Over-expression category of source gene (target coverage), PRAD: PRAD = Prostate adenocarcinoma (N = 498); for Over-expression category of source gene (target coverage), READ: READ = Colon and rectal adenocarcinoma (N = 167); for Over-expression category of source gene (target coverage), SKCM: SKCM = Skin cutaneous melanoma (N = 473); for Over-expression category of source gene (target coverage), STAD: STAD = Stomach adenocarcinoma (N = 415); for Over-expression category of source gene (target coverage), UCEC: UCEC = Uterine corpus endometrial carcinoma (N = 546)
[3] = Table 13A, cancer entities on which the peptide was found presented
[4] = Table 13B, presentation on additional cancer entities

Substance	Presentation score GB (HLA-A*02; HLA-A*02 peptides)	Peptide Presentation on cancer entities (HLA-A*02; [3])	Peptide Presentation on cancer entities (HLA-A*02; [4])	Expression score GB (source genes (mRNA) [1])	Expression score SCLC (source genes (mRNA) [1])	Over-expression category of source gene (target coverage), BLCA (source genes (mRNA) [2]; same cutoff)	Over-expression category of source gene (target coverage), BRCA (source genes (mRNA) [2])	Over-expression category of source gene (target coverage), CHOL (source genes (mRNA) [2]; same cutoff)	Over-expression category of source gene (target coverage), COAD (source genes (mRNA) [2]; same cutoff)	Over-expression category of source gene (target coverage), DLBC (source genes (mRNA) [2]; same cutoff)	Over-expression category of source gene (target coverage), ESCA (source genes (mRNA) [2]; same cutoff)	Over-expression category of source gene (target coverage), GBM (source genes (mRNA) [2]; same cutoff)	Over-expression category of source gene (target coverage), KIRC (source genes (mRNA) [2]; same cutoff)	Over-expression category of source gene (target coverage), KIRP (source genes (mRNA) [2]; same cutoff)	Over-expression category of source gene (target coverage), LAML (source genes (mRNA) [2]; same cutoff)	Over-expression category of source gene (target coverage), LGG (source genes (mRNA) [2]; same cutoff)	Over-expression category of source gene (target coverage), LUSC (source genes (mRNA) [2]; same cutoff)	Over-expression category of source gene (target coverage), OV (source genes (mRNA) [2]; same cutoff)	Over-expression category of source gene (target coverage), SKCM (source genes (mRNA) [2]; same cutoff)	Over-expression category of source gene (target coverage), STAD (source genes (mRNA) [2]; same cutoff)	further results
148: peptide found in SRR (gene looked up) (MLAGIAITV; listed as Homo sapiens) [compound 148]	+++	GB, GBC_CCC	GBC_CCC, NHL	++	+	B (>= 20% of tumors above the cutoff, but <50%)	A (>=50% of tumors above the cutoff)	B (>= 20% of tumors above the cutoff, but <50%)	B (>= 20% of tumors above the cutoff, but <50%)	A (>=50% of tumors above the cutoff)	B (>= 20% of tumors above the cutoff, but <50%)	A (>=50% of tumors above the cutoff)	B (>= 20% of tumors above the cutoff, but <50%)	A (>=50% of tumors above the cutoff)	A (>=50% of tumors above the cutoff)	A (>=50% of tumors above the cutoff)	B (>= 20% of tumors above the cutoff, but <50%)	A (>=50% of tumors above the cutoff)	A (>=50% of tumors above the cutoff)	B (>= 20% of tumors above the cutoff, but <50%)	Over-expression category of source gene (target coverage), KICH (source genes (mRNA) [2]; KICH = Kidney chromophobe (N = 66), same cutoff): C (>=5% of tumors above the cutoff, but <20%); Over-expression category of source gene (target coverage), LIHC (source genes (mRNA) [2]; same cutoff): C (>=5% of tumors above the cutoff, but <20%); Over-expression category of source gene (target coverage), LUAD (source genes (mRNA) [2]; same cutoff): B (>= 20% of tumors above the cutoff, but <50%); Over-expression category of source gene (target coverage), PAAD (source genes (mRNA) [2]; same cutoff): B (>= 20% of tumors above the cutoff, but <50%); Over-expression category of source gene (target coverage), PRAD (source genes (mRNA) [2]; same cutoff): A (>=50% of tumors above the cutoff); Over-expression category of source gene (target coverage), READ (source genes (mRNA) [2]; same cutoff): B (>= 20% of tumors above the cutoff, but <50%); Over-expression category of source gene (target coverage), UCEC (source genes (mRNA) [2]; same cutoff): A (>=50% of tumors above the cutoff)
150: peptide found in RBM15 (gene looked up) (VLYDRPLKI; listed as Homo sapiens) [compound 150]		NSCLC, CLL, OSCAR, OC, MEL, RCC, CRC, NHL	HCC, SCLC, UEC, BRCA	+	+	A (>=50% of tumors above the cutoff)	B (>= 20% of tumors above the cutoff, but <50%)	B (>= 20% of tumors above the cutoff, but <50%)	B (>= 20% of tumors above the cutoff, but <50%)	A (>=50% of tumors above the cutoff)	A (>=50% of tumors above the cutoff)	B (>= 20% of tumors above the cutoff, but <50%)	B (>= 20% of tumors above the cutoff, but <50%)	B (>= 20% of tumors above the cutoff, but <50%)	A (>=50% of tumors above the cutoff)	B (>= 20% of tumors above the cutoff, but <50%)	B (>= 20% of tumors above the cutoff, but <50%)	C (>=5% of tumors above the cutoff, but <20%)	B (>= 20% of tumors above the cutoff, but <50%)	B (>= 20% of tumors above the cutoff, but <50%)	Presentation score CLL (HLA-A*02; HLA-A*02 peptides): ++; Presentation score CRC (HLA-A*02; HLA-A*02 peptides): ++; Presentation score OSCAR (HLA-A*02; HLA-A*02 peptides, esophageal cancer, including cancer of the gastric-esophageal junction (N = 17) vs panel of normal tissues (N = 262)): +; Presentation score MEL (HLA-A*02; HLA-A*02 peptides, melanoma (N = 7) vs panel of normal tissues (N = 262)): +; Presentation score NHL (HLA-A*02; HLA-A*02 peptides): +; Expression score BRCA (source genes (mRNA) [1]; BRCA tumors vs panel of normal tissues): +; Expression score AML (source genes (mRNA) [1]): +; Expression score CLL (source genes (mRNA) [1]): ++; Expression score OSCAR (source genes (mRNA) [1]): +; Expression score NHL (source genes (mRNA) [1]): +; Expression score NSCLC (source genes (mRNA) [1]; non-small cell lung cancer (N = 11) vs panel of normal tissues): +; Expression score OC (source genes (mRNA) [1]): +; Over-expression category of source gene (target coverage), LIHC (source genes (mRNA) [2]; same cutoff): B (>= 20% of tumors above the cutoff, but <50%); Over-expression category of source gene (target coverage), LUAD (source genes (mRNA) [2]; same cutoff): B (>= 20% of tumors above the cutoff, but <50%); Over-expression category of source gene (target coverage), PAAD (source genes (mRNA) [2]; same cutoff): A (>=50% of tumors above the cutoff); Over-expression category of source gene (target coverage), PRAD (source genes (mRNA) [2]; same cutoff): A (>=50% of tumors above the cutoff); Over-expression category of source gene (target coverage), READ (source genes (mRNA) [2]; same cutoff): B (>= 20% of tumors above the cutoff, but <50%); Over-expression category of source gene (target coverage), UCEC (source genes (mRNA) [2]; same cutoff): A (>=50% of tumors above the cutoff)
152: peptide found in KDM5A (gene looked up) (MMVGDLLEV; listed as Homo sapiens) [compound 152]	+++	GB, GC, NSCLC, CLL, MEL, CRC, AML, NHL	UEC, HNSCC		+		C (>=5% of tumors above the cutoff, but <20%)				B (>= 20% of tumors above the cutoff, but <50%)				A (>=50% of tumors above the cutoff)		C (>=5% of tumors above the cutoff, but <20%)	C (>=5% of tumors above the cutoff, but <20%)	C (>=5% of tumors above the cutoff, but <20%)	B (>= 20% of tumors above the cutoff, but <50%)	Presentation score AML (HLA-A*02; HLA-A*02 peptides, acute myeloid leukemia (N = 18) vs panel of normal tissues (N = 262)): +++; Presentation score CLL (HLA-A*02; HLA-A*02 peptides): +++; Presentation score CRC (HLA-A*02; HLA-A*02 peptides): +++; Presentation score NHL (HLA-A*02; HLA-A*02 peptides): +; Presentation score NSCLC (HLA-A*02; HLA-A*02 peptides, non-small cell lung cancer (N = 90) vs panel of normal tissues (N = 262)): +++; Expression score AML (source genes (mRNA) [1]): +; Expression score CLL (source genes (mRNA) [1]): +; Expression score OSCAR (source genes (mRNA) [1]): +; Expression score NHL (source genes (mRNA) [1]): +; Expression score OC (source genes (mRNA) [1]): +
